These are yes or no findings as the source states them, for the method shown. Some results given as binding are weak or reduced against the parent protein; the word gives no strength.
Molecular target: human 4-1BB on CHO-K1-Hu4-1BB cells (human) (UniProt Q07011)
Experiment: flow cytometry on cells; competition on CHO-K1-Hu4-1BB cells; biotin-labeled antibody 1.5 μg/mL mixed with human 4-1BBL 90 to 0.35 μg/mL (fourfold dilutions), 30 min; streptavidin-FITC; only the binder purified

Chains of the proteins cited; added tags and fusions are not shown. Residues count along the entry.
UniProt Q07011, residues 24-255: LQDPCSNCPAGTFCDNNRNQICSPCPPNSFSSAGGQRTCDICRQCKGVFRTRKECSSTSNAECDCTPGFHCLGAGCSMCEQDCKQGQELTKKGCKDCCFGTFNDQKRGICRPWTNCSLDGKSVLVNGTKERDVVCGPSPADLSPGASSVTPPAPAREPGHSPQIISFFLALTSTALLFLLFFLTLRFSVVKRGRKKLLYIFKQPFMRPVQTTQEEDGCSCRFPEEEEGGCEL
UniProt P41273, residues 50-254: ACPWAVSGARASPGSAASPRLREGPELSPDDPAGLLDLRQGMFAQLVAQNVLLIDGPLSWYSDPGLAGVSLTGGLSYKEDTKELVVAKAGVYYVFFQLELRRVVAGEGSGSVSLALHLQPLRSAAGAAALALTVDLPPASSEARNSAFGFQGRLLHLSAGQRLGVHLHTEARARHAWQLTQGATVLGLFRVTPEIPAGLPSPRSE

Substance: human 4-1BBL (from UniProt P41273 50-254) (Fc fusion)
- binding: binds

— paper PMC9461191
